Patent US20170247475A1
These are yes or no findings as the source states them, for the method shown. Some results given as binding are weak or reduced against the parent protein; the word gives no strength.

Sequences of proteins named here, by UniProt entry; tags and fusion partners are left off. A change or cut given only in a name is not applied to a line headed by its entry. Residues count along the entry.
UniProt P17948, residues 27-756: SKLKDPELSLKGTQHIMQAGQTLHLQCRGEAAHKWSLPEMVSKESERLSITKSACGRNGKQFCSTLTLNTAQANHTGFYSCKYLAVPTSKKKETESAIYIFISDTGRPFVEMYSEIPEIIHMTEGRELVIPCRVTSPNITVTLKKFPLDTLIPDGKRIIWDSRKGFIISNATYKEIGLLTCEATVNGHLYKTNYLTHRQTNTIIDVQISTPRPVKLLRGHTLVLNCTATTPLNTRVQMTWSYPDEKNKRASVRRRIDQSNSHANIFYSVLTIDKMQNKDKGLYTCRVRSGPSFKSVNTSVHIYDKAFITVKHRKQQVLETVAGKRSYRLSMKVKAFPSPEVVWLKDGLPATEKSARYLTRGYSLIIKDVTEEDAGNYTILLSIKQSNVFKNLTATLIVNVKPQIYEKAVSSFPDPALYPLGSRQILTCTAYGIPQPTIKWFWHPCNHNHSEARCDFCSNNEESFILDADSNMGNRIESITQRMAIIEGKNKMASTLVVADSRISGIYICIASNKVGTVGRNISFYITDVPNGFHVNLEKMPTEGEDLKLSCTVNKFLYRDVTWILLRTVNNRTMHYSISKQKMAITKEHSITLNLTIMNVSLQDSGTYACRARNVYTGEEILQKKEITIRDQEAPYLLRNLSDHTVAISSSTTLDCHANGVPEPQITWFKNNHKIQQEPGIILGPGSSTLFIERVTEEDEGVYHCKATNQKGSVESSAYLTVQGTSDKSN

Legend:
human PIGF (human) [1] = biological target: T1, human PIGF (human) (UniProt P49763); experiment: binding ELISA on coated PIGF
T1 sequence (looked up): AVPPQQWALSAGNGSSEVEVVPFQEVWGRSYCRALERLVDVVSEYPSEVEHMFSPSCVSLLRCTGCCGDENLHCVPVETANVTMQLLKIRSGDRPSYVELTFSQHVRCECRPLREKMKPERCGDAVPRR

human VEGF-B (human) [2] = biological target: T2, human VEGF-B (human) (UniProt P49765); experiment: binding ELISA on coated VEGFB
T2 sequence (looked up): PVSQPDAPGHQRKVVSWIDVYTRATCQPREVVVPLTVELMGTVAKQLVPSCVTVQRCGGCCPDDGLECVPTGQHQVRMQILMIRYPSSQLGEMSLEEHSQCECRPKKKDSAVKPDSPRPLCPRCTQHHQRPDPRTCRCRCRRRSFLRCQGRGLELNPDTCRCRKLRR

human PIGF (human) [3] = biological target: T1, human PIGF (human); experiment: binding ELISA on coated hPIGF (1 µg/mL)
human VEGF-B (human) [4] = biological target: T2, human VEGF-B (human); experiment: binding ELISA on coated hVEGF-B (1 µg/mL)

Measured: binding

human VEGFR1-Fc chimera (from UniProt P17948 27-756) (Fc fusion)
binds: human PIGF (human) [1] | human VEGF-B (human) [2] | human PIGF (human) [3] | human VEGF-B (human) [4]
